In PubChem BioAssay AID2685 (National Center for Advancing Translational Sciences (NCATS), 2010):
Among all 320,000 compounds or so, about 2,100 (0.66%) were called active. The shares of active, inactive and inconclusive entries below differ from those in the screen. The call rests on the fitted dose curve; in most records, active means well fitted inhibition curve with a large enough effect in the signal ratio, with a control signal flat (not every such curve was filed as active); inconclusive means small, poorly fitted or top-dose-only effect, or effect the other way, or a change in a side signal; inactive means flat fitted curve, though single readings scatter; the % refers to the signal ratio. A potency beside an inconclusive call is a rough fit, not a confirmed value.

Assay: qHTS Assay for Lipid Storage Modulators in Drosophila S3 Cells
Conditions: BODIPY lipid droplet fluorescence, 18-24 h, cells fed with added oleic acid; lipid storage change, negative = inhibition: at 46.1 µM (top of the series) unless noted
How it was run: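 Drosophila S3 cells got compounds at several concentrations plus oleic acid (400 uM solution). Laser-scanning cytometry with 488 nm excitation read lipid droplets at 500-530 nm and cells at 575-640 nm. Percent activity was relative to 20 uM Triacsin C.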
On the % scale 0 is the no-effect control and ±100 the full control effect; potency means the concentration at half of the fitted maximal effect.

SMILES | lipid storage change, negative = inhibition | Potency
Cc1ccc(N/N=C(\C#N)C(N)=S)c(C)c1 | inconclusive: 3.91% | 
O=C1CC(NCc2ccncc2)C(=O)N1c1ccc(Cl)cc1 (stereo not drawn) | inconclusive: 16.5% | 
COc1ccccc1CNC(=O)C(C)Sc1ccsc1[N+](=O)[O-] (stereo not drawn) | inconclusive: 40.7% | 
O=C(N/N=C/c1cccc(Br)c1)c1ccc(Br)cc1 | inconclusive: 41% | 
Cc1c(Cc2ccccc2)c(=O)oc2cc(OCc3nn[nH]n3)ccc12 | inconclusive: -11.6% | 
CCOC(=O)C(C)C1(O)c2ccccc2-c2ncccc21 (stereo not drawn) | inconclusive: 7.78% | 
COc1cc(C(=S)N2CCOCC2)cc(OC)c1OC(=O)c1cccc(C)c1 | inconclusive: -16.3% | 
O=C(Nc1ccc(-n2cccn2)cc1)C1CCCCN1Cc1cccc2cccnc12 (stereo not drawn) |  | inconclusive: 6.51 µM [activator, single point]
Nc1c(C(=O)Nc2ccccc2Cl)nnn1-c1ccc2c(c1)OCCO2 |  | inconclusive: 29.1 µM [rising, single point]
O=C(NCC(c1ccco1)N1CCc2ccccc2C1)C(=O)Nc1ccccc1 (stereo not drawn) | inconclusive: -24.3% [at 0.0737 µM] | 
C/C(CCc1ccccc1)=N\NC(=O)COc1ccccc1C | inconclusive: 16.9% | 
COc1ccc(/C=C2\SC(N)=NC2=O)cc1 |  | inconclusive: 29.1 µM [activator, single point]
CSc1ccc(/C=N\Nc2nncn2N)cc1 |  | inconclusive: 29.1 µM [cytotoxic, single point]
COc1ccc(CCN2CC(C(=O)OC(C)C(=O)Nc3cccc(Cl)c3)CC2=O)cc1OC (stereo not drawn) |  | inconclusive: 29.1 µM [activator, single point]
COc1nc(N)c(S(=O)(=O)c2ccc(C)cc2)cc1C#N |  | inconclusive: 1.3 µM [activator, partial curve, poor fit]
CCOc1ccc(CNC(c2ccccc2)c2ccccc2)cc1 | inconclusive: 23.7% | 
Cc1ccc(NC(=O)NC2CCN(CC(=O)Nc3nccs3)CC2)cc1 |  | inconclusive: 0.13 µM [activator, full curve, poor fit]
COc1ccc(C(CC(=O)N2CCCC2)c2c(OC)cc(OC)c3ccc(=O)oc23)cc1 (stereo not drawn) | inconclusive: 18.6% | 
C[C@H](NC(=O)c1ccccc1)C(=O)OCC(=O)Nc1ccc2c(c1)OCO2 | inconclusive: -5.28% | 

Quoted at random: three records from the list, in no set order.
SMILES | lipid storage change, negative = inhibition | Potency
COc1nc(N)c(S(=O)(=O)c2ccc(C)cc2)cc1C#N |  | inconclusive: 1.3 µM [activator, partial curve, poor fit]
O=C(NCC(c1ccco1)N1CCc2ccccc2C1)C(=O)Nc1ccccc1 (stereo not drawn) | inconclusive: -24.3% [at 0.0737 µM] | 
Cc1ccc(N/N=C(\C#N)C(N)=S)c(C)c1 | inconclusive: 3.91% | 

(more compounds)

SMILES | lipid storage change, negative = inhibition | Potency
CCCc1ncc(CN2CCCC(C(=O)Nc3ccc(-c4cccc(OC)c4)cc3)C2)cn1 (stereo not drawn) | inconclusive: 34.7% | 
CCOc1ccc(CCNC(=O)c2cccc(S(=O)(=O)N3CCN(C(C)=O)CC3)c2)cc1OCC | inactive: -10.5% | 
O=c1[nH]c(-c2ccc(Cl)cc2)nc2c1cnn2-c1ccccc1 | inconclusive: -13% | 
CCCCn1nc(C(=O)NCc2ccccc2CN2CCCC2)c2ccccc2c1=O | inconclusive: 4.3% | 
COc1ccc(N(C(=O)Cn2nnc(-c3ccc(F)cc3)n2)C(C)C(=O)NC2CCCC2)cc1OC (stereo not drawn) | inconclusive: -37.9% | 
COc1ccc(CC(=O)Nc2nnc(C)s2)cc1 |  | inconclusive: 16.4 µM [activator, single point]
COc1ccc(C2/C(=C(/O)c3ccc4c(c3)CC(C)O4)C(=O)C(=O)N2CCN2CCOCC2)cc1 (stereo not drawn) | inconclusive: -77.7% | 
Cc1nnc(SCC(=O)Nc2cccc(S(=O)(=O)N(C)c3ccccc3)c2)s1 |  | inconclusive: 23.1 µM [falling, single point]
COC(=O)c1ccccc1NC(=O)CSc1n[nH]c(-c2ccco2)n1 |  | inconclusive: 6.51 µM [falling, single point]
Cc1ccc(NC(=O)c2cc3nc(C)cc(C)n3n2)cc1 |  | inconclusive: 2.31 µM [rising, partial curve]
CCOc1ccccc1C(=O)Nc1ccccc1-c1ccccc1 | inconclusive: 21.9% | 
COc1ccc(CNc2cccc(C)n2)c(O)c1 |  | inconclusive: 11.6 µM [activator, partial curve, poor fit]
Cn1c(=O)c2cc(S(=O)(=O)NCCC(=O)Nc3ccc(Cl)cc3)ccc2n(C)c1=O | inconclusive: 7.37% | 
Cc1ccc(OCC(=O)N2CCN(C(=O)Cc3ccccc3)CC2)cc1 | inactive: 9.56% | 
NC(=O)c1ccsc1NC(=O)CCS(=O)(=O)c1ccccc1 | inconclusive: -64.3% | 
CN(C)c1nc(NCc2ccccc2)nc(N/N=C/c2ccccc2F)n1 |  | active: 23.1 µM
COc1ccc(CCn2c(=S)[nH]c3cc(C(=O)NCc4ccco4)ccc3c2=O)cc1OC |  | inconclusive: 3.66 µM [falling, single point]
CC(=O)c1ccc(NC(=O)Nc2cccnc2)cc1 |  | inconclusive: 10.3 µM [activator, single point]
COc1cc2c(cc1OC)CN(C(=O)c1oc3ccccc3c1C)CC2 | inconclusive: 122% | 
